For at least one entry, the source does not settle the construct or the ends of the probe. At least one verdict rests on a figure or table, not on a statement of the authors. Protein sequences can lack the tags named with them.
Biological target: T1, rMBP-pTAC12 (ZmpTAC12) (Zea mays) (UniProt B4FZ81)
T1 sequence (looked up): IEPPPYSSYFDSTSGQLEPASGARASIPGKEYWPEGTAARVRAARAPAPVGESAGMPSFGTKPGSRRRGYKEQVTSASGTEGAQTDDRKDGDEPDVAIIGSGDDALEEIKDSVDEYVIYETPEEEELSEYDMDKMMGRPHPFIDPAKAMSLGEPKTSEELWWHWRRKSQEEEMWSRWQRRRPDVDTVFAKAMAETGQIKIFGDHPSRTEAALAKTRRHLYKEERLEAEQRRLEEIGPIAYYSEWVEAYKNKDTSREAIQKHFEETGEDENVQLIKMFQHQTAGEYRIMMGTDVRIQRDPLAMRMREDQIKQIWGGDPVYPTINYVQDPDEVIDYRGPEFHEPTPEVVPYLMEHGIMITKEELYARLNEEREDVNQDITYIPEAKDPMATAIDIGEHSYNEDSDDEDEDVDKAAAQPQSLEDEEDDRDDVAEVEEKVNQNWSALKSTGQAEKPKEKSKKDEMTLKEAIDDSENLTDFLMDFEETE
Experiment: EMSA
Details: c. 100 pM probe, 1 ug/ul heparin (ssRNA assays), c. 100 pM radiolabeled 50mer, recombinant protein, residues 72-555, protein details: N-terminal MBP fusion

[1] = label: 5' end radiolabel (T4 PNK), single-stranded DNA
[2] = 1 ug/ul heparin, label: radiolabeled, letters put together from the description

Row | Sequence | binding result [1] | binding result [2]
1 | CAGAATAACCAATGTCCGTTAGGCACCTAATCCTTATGTCATAATAGATC [psaAB-231 ssDNA] | binds | 
2 | GGUAAUAGAUCCGAACACUUGCCUCGGAUUGACUUCAAUAUAUAAUUGCUCC [psaAB-190 ssRNA] |  | binds
3 | GGCAGAAUAACCAAUGUCCGUUAGGCACCUAAUCCUUAUGUCAUAAUAGAUC [psaAB-231 ssRNA] |  | binds
4 | TAATAGATCCGAACACTTGCCTCGGATTGACTTCAATATATAATTGCTCC [psaAB-190 ssDNA] | binds | 
